The other results are listed elsewhere or left out.
Assays:
Test in all cases: log2 fold change, soluble protein after heating vs DMSO (PISA); higher = thermal stabilisation; K562 lysate, 10 uM; active = over 0.2 and 3.5 SD of the protein, either way, in both replicates (recomputed)
[1] = compound: C=CC(=O)N1CCC[C@@H](n2nc(-c3ccc(Oc4ccccc4)cc3)c3c(N)ncnc32)C1 [ibrutinib]
Summary of the method: (§1)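 Following dounce homogenisation of K562 pellets in PBS pH 7.4 with 1 mM MgCl2, crude extract at 1 mg/mL protein was incubated for 30 min with 10 μM compound. Aliquots were then heated for 3 min over 48°C-58°C and pooled, NP-40 was added to 0.5% at 4°C, and soluble protein was recovered as the supernatant at 21,000xg for 90 min. Channel-sum-equalised TMTpro 16plex LC-MS/MS quantified this protein. Each value, from duplicates, is a log-two fold change in thermal stability relative to solvent controls.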

Sequences of proteins named here, by UniProt entry; tags and fusion partners are left off. A change or cut given only in a name is not applied to a line headed by its entry.
UniProt P49427: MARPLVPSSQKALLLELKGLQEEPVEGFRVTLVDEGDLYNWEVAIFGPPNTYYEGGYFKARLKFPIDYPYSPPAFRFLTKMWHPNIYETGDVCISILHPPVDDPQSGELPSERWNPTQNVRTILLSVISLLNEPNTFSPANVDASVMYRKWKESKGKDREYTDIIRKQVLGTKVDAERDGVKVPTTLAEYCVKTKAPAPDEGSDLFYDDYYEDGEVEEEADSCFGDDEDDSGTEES
UniProt Q8IW35: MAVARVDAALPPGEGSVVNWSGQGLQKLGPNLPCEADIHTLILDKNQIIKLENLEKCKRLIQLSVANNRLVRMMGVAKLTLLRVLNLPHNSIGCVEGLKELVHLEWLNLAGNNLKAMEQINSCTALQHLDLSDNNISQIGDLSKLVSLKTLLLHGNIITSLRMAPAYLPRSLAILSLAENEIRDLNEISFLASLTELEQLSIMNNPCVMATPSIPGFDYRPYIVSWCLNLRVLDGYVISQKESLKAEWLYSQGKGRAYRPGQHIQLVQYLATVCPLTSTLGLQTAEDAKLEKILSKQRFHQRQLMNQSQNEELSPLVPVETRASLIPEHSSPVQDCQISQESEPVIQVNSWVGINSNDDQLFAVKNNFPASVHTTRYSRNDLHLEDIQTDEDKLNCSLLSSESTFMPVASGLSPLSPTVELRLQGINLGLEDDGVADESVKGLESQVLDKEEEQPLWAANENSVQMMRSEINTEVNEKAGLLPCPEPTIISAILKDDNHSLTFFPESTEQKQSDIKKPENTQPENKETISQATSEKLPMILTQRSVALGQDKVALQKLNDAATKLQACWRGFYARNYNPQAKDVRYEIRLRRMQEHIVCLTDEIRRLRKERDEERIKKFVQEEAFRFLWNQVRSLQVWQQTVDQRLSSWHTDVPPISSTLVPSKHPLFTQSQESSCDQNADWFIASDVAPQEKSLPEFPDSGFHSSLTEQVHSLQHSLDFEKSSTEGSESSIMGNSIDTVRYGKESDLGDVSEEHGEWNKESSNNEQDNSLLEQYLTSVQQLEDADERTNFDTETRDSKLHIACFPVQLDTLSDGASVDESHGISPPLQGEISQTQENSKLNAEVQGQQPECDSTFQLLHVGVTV
UniProt Q9Y6K0: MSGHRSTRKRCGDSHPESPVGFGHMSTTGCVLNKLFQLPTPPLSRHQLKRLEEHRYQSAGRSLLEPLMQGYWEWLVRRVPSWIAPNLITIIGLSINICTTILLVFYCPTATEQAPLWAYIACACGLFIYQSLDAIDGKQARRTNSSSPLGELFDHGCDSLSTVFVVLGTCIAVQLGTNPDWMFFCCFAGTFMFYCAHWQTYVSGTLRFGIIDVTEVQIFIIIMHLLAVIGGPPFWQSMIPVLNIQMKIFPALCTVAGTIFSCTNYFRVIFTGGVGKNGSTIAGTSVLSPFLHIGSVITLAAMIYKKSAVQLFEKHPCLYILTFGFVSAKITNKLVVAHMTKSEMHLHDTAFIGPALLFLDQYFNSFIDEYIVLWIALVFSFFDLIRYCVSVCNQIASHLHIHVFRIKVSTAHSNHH
UniProt Q69YH5: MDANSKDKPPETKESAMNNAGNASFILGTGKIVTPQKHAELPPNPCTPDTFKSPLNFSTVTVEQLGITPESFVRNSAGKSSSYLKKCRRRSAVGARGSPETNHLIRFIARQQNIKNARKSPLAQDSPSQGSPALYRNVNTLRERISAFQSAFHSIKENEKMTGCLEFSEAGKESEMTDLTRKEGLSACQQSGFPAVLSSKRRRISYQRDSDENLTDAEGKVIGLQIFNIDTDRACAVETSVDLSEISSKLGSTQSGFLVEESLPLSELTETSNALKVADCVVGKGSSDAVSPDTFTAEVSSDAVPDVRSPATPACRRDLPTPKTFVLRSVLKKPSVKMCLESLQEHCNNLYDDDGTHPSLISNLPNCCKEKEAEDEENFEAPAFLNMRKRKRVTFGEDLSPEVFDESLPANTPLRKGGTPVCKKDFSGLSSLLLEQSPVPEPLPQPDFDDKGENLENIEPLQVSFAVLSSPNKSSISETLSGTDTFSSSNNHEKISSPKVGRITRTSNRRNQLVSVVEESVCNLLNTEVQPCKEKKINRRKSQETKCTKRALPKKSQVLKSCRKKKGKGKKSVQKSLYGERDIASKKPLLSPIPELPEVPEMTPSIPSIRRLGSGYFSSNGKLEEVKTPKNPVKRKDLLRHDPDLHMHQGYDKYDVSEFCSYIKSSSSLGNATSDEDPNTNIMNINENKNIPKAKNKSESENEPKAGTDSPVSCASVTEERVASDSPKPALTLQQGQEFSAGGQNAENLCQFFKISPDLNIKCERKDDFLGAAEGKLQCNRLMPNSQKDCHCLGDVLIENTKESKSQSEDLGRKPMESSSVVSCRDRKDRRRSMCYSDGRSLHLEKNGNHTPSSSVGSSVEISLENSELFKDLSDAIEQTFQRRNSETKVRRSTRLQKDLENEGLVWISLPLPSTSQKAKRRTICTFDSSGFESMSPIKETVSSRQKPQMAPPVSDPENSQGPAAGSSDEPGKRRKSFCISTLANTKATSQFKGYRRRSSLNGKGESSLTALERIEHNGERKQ
UniProt O14519: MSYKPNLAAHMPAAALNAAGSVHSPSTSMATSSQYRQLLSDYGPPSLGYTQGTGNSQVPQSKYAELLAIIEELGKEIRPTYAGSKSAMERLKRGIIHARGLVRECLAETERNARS
UniProt Q9BV73: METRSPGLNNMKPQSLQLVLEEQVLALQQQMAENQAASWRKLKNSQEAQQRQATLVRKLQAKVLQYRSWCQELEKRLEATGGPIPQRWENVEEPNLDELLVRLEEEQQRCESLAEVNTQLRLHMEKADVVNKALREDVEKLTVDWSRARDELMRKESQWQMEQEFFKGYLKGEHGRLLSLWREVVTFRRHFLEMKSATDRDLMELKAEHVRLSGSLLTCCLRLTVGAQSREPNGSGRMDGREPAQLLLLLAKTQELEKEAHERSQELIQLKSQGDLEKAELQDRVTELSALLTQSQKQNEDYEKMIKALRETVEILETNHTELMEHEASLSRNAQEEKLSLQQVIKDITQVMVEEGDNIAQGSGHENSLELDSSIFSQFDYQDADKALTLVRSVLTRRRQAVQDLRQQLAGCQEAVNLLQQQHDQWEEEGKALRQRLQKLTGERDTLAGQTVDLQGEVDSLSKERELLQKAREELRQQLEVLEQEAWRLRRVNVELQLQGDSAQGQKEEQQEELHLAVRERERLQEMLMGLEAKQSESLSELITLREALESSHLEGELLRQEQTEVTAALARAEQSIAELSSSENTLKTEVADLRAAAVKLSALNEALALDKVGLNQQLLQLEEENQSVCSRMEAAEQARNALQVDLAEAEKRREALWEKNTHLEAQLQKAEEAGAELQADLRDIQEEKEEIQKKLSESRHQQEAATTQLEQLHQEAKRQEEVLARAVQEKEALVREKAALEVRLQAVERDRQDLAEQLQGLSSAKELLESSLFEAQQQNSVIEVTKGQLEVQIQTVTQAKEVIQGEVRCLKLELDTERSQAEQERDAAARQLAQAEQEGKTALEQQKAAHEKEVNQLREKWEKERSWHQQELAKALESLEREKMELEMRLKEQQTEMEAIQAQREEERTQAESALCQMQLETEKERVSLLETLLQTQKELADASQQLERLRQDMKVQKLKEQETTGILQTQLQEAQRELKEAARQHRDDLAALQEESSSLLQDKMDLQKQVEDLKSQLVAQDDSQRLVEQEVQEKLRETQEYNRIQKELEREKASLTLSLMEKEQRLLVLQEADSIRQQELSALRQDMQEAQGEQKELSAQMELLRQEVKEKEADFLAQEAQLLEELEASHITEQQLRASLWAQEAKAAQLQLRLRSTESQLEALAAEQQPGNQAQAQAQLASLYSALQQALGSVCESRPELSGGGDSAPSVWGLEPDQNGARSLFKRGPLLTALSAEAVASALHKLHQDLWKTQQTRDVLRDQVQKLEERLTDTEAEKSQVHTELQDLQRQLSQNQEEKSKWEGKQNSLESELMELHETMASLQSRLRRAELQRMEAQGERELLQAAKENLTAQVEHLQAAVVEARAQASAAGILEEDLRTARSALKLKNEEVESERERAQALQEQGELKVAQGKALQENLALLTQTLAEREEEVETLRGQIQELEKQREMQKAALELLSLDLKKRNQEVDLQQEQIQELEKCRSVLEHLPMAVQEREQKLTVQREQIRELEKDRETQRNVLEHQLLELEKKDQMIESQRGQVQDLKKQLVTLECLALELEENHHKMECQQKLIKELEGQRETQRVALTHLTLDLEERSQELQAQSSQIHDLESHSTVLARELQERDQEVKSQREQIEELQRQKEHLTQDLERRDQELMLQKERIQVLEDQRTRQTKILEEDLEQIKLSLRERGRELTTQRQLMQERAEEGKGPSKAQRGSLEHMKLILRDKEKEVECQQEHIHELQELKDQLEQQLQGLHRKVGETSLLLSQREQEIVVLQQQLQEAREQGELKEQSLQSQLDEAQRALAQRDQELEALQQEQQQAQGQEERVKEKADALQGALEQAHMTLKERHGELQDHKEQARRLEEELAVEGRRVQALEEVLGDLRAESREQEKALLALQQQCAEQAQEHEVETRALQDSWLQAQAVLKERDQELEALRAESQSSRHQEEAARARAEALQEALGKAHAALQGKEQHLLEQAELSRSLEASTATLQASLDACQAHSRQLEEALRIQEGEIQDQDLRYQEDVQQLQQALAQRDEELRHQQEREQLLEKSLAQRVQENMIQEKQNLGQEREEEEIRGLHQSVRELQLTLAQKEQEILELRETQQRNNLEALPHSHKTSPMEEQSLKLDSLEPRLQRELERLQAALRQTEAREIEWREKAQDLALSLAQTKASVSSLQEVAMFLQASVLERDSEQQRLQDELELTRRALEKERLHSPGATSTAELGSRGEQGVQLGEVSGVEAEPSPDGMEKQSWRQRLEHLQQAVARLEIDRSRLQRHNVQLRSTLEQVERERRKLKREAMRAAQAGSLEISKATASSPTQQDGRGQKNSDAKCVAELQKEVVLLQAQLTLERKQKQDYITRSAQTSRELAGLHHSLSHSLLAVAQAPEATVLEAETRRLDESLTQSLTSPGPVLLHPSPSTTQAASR
UniProt O00311: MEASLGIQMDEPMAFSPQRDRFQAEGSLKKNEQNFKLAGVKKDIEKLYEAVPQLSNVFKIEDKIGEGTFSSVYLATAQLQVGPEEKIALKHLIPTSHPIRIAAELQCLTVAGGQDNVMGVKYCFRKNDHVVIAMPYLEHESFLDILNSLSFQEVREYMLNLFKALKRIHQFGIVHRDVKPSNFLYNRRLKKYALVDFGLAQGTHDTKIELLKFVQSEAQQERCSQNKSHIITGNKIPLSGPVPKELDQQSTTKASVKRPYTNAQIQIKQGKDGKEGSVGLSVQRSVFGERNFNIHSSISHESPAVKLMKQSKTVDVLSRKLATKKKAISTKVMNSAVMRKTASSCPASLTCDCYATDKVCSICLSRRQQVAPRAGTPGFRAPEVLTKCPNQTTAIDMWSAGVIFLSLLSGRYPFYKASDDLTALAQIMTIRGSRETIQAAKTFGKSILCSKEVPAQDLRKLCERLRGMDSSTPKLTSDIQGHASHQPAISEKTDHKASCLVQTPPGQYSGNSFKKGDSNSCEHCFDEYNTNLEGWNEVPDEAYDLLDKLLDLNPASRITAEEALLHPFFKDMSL
UniProt Q53EZ4: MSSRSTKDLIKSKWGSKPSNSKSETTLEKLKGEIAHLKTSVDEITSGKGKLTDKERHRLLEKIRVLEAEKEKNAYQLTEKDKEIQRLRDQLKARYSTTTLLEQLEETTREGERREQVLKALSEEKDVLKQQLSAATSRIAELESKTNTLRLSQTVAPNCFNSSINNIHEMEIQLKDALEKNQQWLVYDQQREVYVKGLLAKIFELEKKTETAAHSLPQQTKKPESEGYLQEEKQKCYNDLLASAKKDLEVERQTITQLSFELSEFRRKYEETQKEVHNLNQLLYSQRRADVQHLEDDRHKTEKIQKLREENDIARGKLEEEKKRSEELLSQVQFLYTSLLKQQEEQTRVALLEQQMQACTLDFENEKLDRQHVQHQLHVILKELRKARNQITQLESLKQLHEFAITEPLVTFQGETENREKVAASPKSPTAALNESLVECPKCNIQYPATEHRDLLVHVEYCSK

[2] = compound: CC(=O)c1cnc2ccc(-c3cc(Cl)c(O)c(Cl)c3)nc2c1N[C@H]1CC[C@H](CN(C)C)CC1
Summary of the method: as §1

[3] = compound: CC(C)(C)Cn1c(N)nc2ccc(-c3[nH]c(C(C)(C)C)nc3-c3ccc(F)cc3)nc21 [ralimetinib]
Summary of the method: as §1

[4] = compound: CC(C)(O)CC(=O)NCCn1ccc2ncnc(Nc3ccc(Oc4cccc(C(F)(F)F)c4)c(Cl)c3)c21
Summary of the method: as §1

[5] = compound: CC(C)C1=C2N=C(C=C(N2N=C1)NCC3=CC=CC=C3)NCCCCCCN
Summary of the method: as §1

[6] = compound: CC1=C(C(CC(=O)N1)C2=CC=C(C=C2)C(F)(F)F)C(=O)NC3=C(C=C4C(=C3)C=NN4)F
Summary of the method: as §1

[7] = compound: CC1=C(C2=C(C=C1)C(=O)C3=CC=CC=C3N2CCCN)C
Summary of the method: as §1

[8] = compound: CC1=C(C=C(C=C1)NC(=O)C2=CC(=CC=C2)C(C)(C)C#N)NC3=CC4=C(C=C3)N=CN(C4=O)C
Summary of the method: as §1

[9] = compound: CC1=C(C=C(C=C1)NC(=O)C2=CC(=CC=C2)N(C)C)NC(=O)C3=CC=C(C=C3)O
Summary of the method: as §1

[10] = compound: CC1=CC=C(C=C1)SC2=C3C=C(SC3=CN=C2)C(=O)N
Summary of the method: as §1

[11] = compound: CCCS(=O)(=O)Nc1ccc(F)c(C(=O)c2c[nH]c3ncc(-c4ccc(Cl)cc4)cc23)c1F [vemurafenib]
Summary of the method: as §1

[12] = compound: CCCS(=O)(=O)Nc1ccc(F)c(C(=O)c2c[nH]c3ncc(Cl)cc23)c1F
Summary of the method: as §1

[13] = compound: CCN(CCCOc1ccc2c(Nc3cc(CC(=O)Nc4cccc(F)c4)[nH]n3)ncnc2c1)CCOP(=O)(O)O [barasertib]
Summary of the method: as §1

[14] = compound: CC[C@@H]1C(=O)N(C)c2cnc(Nc3ccc(C(=O)NC4CCN(C)CC4)cc3OC)nc2N1C1CCCC1
Summary of the method: as §1

[15] = compound: CC[C@@H]1C(=O)N(C)c2cnc(Nc3ccc(C(=O)N[C@H]4CC[C@H](N5CCN(CC6CC6)CC5)CC4)cc3OC)nc2N1C(C)C [volasertib]
Summary of the method: as §1

[16] = compound: CCn1c(C(=O)N(C2CC2)C2CC2)cc2c3c(ncn3C)c(Nc3cc(C)n(C)n3)nc21
Summary of the method: as §1

[17] = compound: CCn1cc(-c2ccnc3[nH]c(-c4cccc(CN(C)C)c4)cc23)c(-c2ccc(NC(=O)N(C)C)cc2)n1
Summary of the method: as §1

[18] = compound: CN1CCC(CNc2ccc3ncc(-c4cccc(OC(F)(F)F)c4)n3n2)CC1
Summary of the method: as §1

[19] = compound: CN1CCN(CCOc2cc(OC3CCOCC3)c3c(Nc4c(Cl)ccc5c4OCO5)ncnc3c2)CC1 [saracatinib]
Summary of the method: as §1

[20] = compound: CN1CCN(c2nc(C3=C(c4c[nH]c5ccccc45)C(=O)NC3=O)c3ccccc3n2)CC1 [sotrastaurin]
Summary of the method: as §1

Measured: log2 fold change

CDC34 (UniProt P49427)
inactive: [1] 0.018 | [2] 0.01 | [3] -0.004 | [4] 0.023 | [5] -0.065 | [6] -0.009 | [7] 0.04 | [8] 0 | [9] 0.017 | [10] -0.101 | [11] 0.083 | [12] 0.017 | [13] 0.006 | [14] -0.004 | [15] -0.028 | [16] 0.107 | [17] -0.057 | [18] -0.031 | [19] 0.058 | [20] 0.005

CEP97 (UniProt Q8IW35)
inactive: [1] 0.02 | [2] 0.057 | [3] 0 | [4] -0.02 | [5] -0.022 | [6] 0.013 | [7] 0 | [8] 0.036 | [9] 0.051 | [10] 0.004 | [11] 0.023 | [12] -0.042 | [13] 0.074 | [14] -0.031 | [15] -0.003 | [16] -0.002 | [17] -0.026 | [18] -0.011 | [19] 0.033 | [20] 0.026

CEPT1 (UniProt Q9Y6K0)
inactive: [1] 0.011 | [2] 0.061 | [3] 0.009 | [4] -0.003 | [5] 0.032 | [6] 0.004 | [7] -0.008 | [8] 0.026 | [9] 0 | [10] 0.024 | [11] -0.031 | [12] 0.006 | [13] 0.08 | [14] -0.006 | [15] 0.042 | [16] -0.079 | [17] -0.102 | [18] 0.084 | [19] 0.037 | [20] -0.008

CDCA2 (UniProt Q69YH5)
inactive: [1] -0.069 | [2] -0.055 | [3] -0.076 | [4] -0.195 | [5] 0.04 | [6] -0.092 | [7] 0.068 | [8] -0.033 | [9] -0.013 | [10] -0.186 | [11] 0.013 | [12] -0.088 | [13] -0.042 | [14] -0.01 | [15] 0.042 | [16] -0.096 | [17] 0.078 | [18] -0.079 | [19] 0.012 | [20] -0.019

Taken from above (2 entries):
CEPT1 (UniProt Q9Y6K0)
inactive: [1] 0.011 | [2] 0.061 | [3] 0.009 | [4] -0.003 | [5] 0.032 | [6] 0.004 | [7] -0.008 | [8] 0.026 | [9] 0 | [10] 0.024 | [11] -0.031 | [12] 0.006 | [13] 0.08 | [14] -0.006 | [15] 0.042 | [16] -0.079 | [17] -0.102 | [18] 0.084 | [19] 0.037 | [20] -0.008

CDCA2 (UniProt Q69YH5)
inactive: [1] -0.069 | [2] -0.055 | [3] -0.076 | [4] -0.195 | [5] 0.04 | [6] -0.092 | [7] 0.068 | [8] -0.033 | [9] -0.013 | [10] -0.186 | [11] 0.013 | [12] -0.088 | [13] -0.042 | [14] -0.01 | [15] 0.042 | [16] -0.096 | [17] 0.078 | [18] -0.079 | [19] 0.012 | [20] -0.019

Going on with the list:

CDK2AP1 (UniProt O14519)
inactive: [1] 0.284 | [2] -0.065 | [3] -0.031 | [4] -0.059 | [5] 0.08 | [6] -0.114 | [7] 0.08 | [8] 0.064 | [9] 0.119 | [10] 0.104 | [11] 0.143 | [12] 0.031 | [13] 0.148 | [14] 0.033 | [15] 0.1 | [16] -0.059 | [17] -0.083 | [18] 0.03 | [19] -0.055 | [20] 0.031

CEP250 (UniProt Q9BV73)
inactive: [1] 0.073 | [2] 0 | [3] -0.01 | [4] -0.062 | [5] -0.035 | [6] -0.033 | [7] -0.052 | [8] -0.001 | [9] 0.015 | [10] -0.083 | [11] 0.002 | [12] 0.044 | [13] 0.038 | [14] 0.01 | [15] -0.033 | [16] -0.007 | [17] -0.016 | [18] 0.012 | [19] 0.032 | [20] -0.014

CDC7 (UniProt O00311)
inactive: [1] 0.04 | [2] 0.09 | [3] 0.014 | [4] 0.028 | [5] 0.047 | [6] 0.066 | [7] -0.011 | [8] 0.05 | [9] -0.002 | [10] -0.07 | [11] 0.065 | [12] 0.073 | [13] -0.005 | [14] 0.039 | [15] -0.097 | [16] -0.003 | [17] -0.01 | [18] -0.073 | [19] 0.004 | [20] 0.036

CEP55 (UniProt Q53EZ4)
inactive: [1] -0.016 | [2] 0.063 | [3] 0 | [4] -0.027 | [5] -0.032 | [6] -0.019 | [7] 0.025 | [8] 0.005 | [9] 0.107 | [10] -0.043 | [11] -0.023 | [12] -0.002 | [13] -0.023 | [14] -0.001 | [15] -0.008 | [16] -0.025 | [17] 0.03 | [18] -0.006 | [19] -0.007 | [20] 0.022

Reference: the supplement of paper PMC10849652
